Results: US20120115830A1
These are yes or no findings as the source states them, for the method shown. Binding seen in cells or lysates may run through a third protein. Some entries that bind do so weakly or less than the wild type.

Protein sequences, listed by entry. Tags and fused reporters are not part of them.
UniProt Q9BYM8: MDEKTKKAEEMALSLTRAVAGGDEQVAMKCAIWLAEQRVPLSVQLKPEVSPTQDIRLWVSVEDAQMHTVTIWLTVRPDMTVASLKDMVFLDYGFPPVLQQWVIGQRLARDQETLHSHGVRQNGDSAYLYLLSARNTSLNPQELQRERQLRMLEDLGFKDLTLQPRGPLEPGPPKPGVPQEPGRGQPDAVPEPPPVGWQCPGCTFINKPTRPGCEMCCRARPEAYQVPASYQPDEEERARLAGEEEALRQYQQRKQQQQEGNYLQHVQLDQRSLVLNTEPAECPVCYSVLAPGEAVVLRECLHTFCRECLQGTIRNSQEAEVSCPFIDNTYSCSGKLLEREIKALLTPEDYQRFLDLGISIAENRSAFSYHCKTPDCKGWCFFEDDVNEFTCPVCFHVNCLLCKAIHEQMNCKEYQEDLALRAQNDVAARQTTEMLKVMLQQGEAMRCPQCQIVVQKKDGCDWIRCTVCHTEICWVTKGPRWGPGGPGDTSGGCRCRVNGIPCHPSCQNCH

Experiments:
[1] = molecular target: T1, FKBPL (Homo sapiens (Human)) (UniProt Q9UIM3); test: co-immunoprecipitation (FIG. 3a)
T1 sequence: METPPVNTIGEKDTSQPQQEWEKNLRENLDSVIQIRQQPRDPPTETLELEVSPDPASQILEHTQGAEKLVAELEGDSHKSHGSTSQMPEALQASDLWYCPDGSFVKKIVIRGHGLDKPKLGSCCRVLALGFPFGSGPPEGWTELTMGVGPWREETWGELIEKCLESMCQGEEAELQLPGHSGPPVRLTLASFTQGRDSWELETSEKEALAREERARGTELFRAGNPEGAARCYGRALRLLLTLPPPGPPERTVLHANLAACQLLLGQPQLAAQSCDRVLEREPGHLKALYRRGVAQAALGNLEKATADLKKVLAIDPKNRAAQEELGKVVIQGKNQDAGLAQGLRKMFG

[2] = molecular target: T1, FKBPL (Homo sapiens (Human)); test: co-immunoprecipitation from FKBPL stable 3.1D2 cells transfected with pcDNA3.1-Myc/XAP3, western blot
[3] = molecular target: T1, FKBPL (Homo sapiens (Human)); test: co-immunoprecipitation (FIG. 3)

Measured: binding

Myc/XAP3 (pcDNA3.1-Myc/XAP3) (from UniProt Q9BYM8 1-510)
binds: all assays above
